Data as given in PubChem BioAssay AID1053208 (Peter MacCallum Cancer Centre, 2014)

Test: 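Genes whose silencing cuts survival of bone tumour cells only with doxorubicin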 (primary screen)
System: mouse osteosarcoma cells, early-passage culture from an engineered mouse model of fibroblastic bone tumour
Reagent: siRNA pool against mouse genes, 40 nM
Duration: about 120 h (48 h before drug, then 72 h with drug)
Treatment: doxorubicin 100 nM for 72 h, roughly 30-40% inhibitory dose
Detection: 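Luminescent ATP signal taken as viability with or without 100 nM doxorubicin for 72 h; mean of two wells set against non-targeting siRNA and turned into robust z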
Scale: viability z-score with doxorubicin: higher = more viable cells under doxorubicin; viability z-score without drug: higher = more viable cells with knock-down alone
Active means: 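Called active if knock-down leaves viability unchanged without drug (z within -2 to 2) but lowers it with doxorubicin (z at or under -2)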
This is one part, drawn at random, of about 17,000 deposited reagents. 788 of them (4.7%) count as active. 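Calls rest on z-score classes alone; an extra cut-off of viability at most 70% of control was not applied to them.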 Unmarked entries are inactive. Further read-outs or replicates are left out here. No sequences are given here.

gene | combined z-score class | viability z-score with doxorubicin | viability z-score without drug
Ninl (GeneID 78177) | high cell count without drug only | -0.45 | 2.19
Shroom2 (GeneID 110380) | low cell count with doxorubicin only (active) | -2.25 | -0.34
Umodl1 (GeneID 52020) | no change with or without drug | 0.45 | 0.51
Cd2 (GeneID 12481) | high cell count without drug only | 1.12 | 2.36
Epop (GeneID 103551) | no change with or without drug | 0.45 | 0.51
Brf2 (GeneID 66653) | high cell count with doxorubicin only | 2.02 | 0.84
Trappc9 (GeneID 76510) | low cell count with doxorubicin only (active) | -2.14 | 1.52
Taf1b (GeneID 21340) | no change with or without drug | -0.9 | -1.18
Mdh1 (GeneID 17449) | high cell count with and without drug | 3.48 | 2.02
Igf2bp1 (GeneID 140486) | no change with or without drug | -0.9 | -1.01
Apol8 (GeneID 239552) | no change with or without drug | -0.11 | 0.17
Ucp2 (GeneID 22228) | no change with or without drug | 1.57 | 0
Igsf6 (GeneID 80719) | no change with or without drug | -0.9 | -0.17
Or9s13 (GeneID 257890) | low cell count with and without drug | -3.93 | -2.87
Ambra1 (GeneID 228361) | no change with or without drug | -0.22 | 0.34
Lrrc39 (GeneID 109245) | no change with or without drug | -1.12 | 0.17
Psmd8 (GeneID 57296) | no change with or without drug | -1.69 | -0.17
Podn (GeneID 242608) | low cell count with doxorubicin only (active) | -2.02 | -1.18
Arhgef4 (GeneID 226970) | no change with or without drug | -1.24 | -1.52
Or51b6 (GeneID 18365) | no change with or without drug | -1.46 | -0.84

2 successive records already listed, for reference:
gene | combined z-score class | viability z-score with doxorubicin | viability z-score without drug
Arhgef4 (GeneID 226970) | no change with or without drug | -1.24 | -1.52
Or51b6 (GeneID 18365) | no change with or without drug | -1.46 | -0.84
